The text below walks through data of the supplement of paper PMC12889115.

The assay deals with Salmonella enterica serovar Typhimurium SL1344. The experiment in a line: bacterial growth OD600 after 18 h with compound and polymyxin B; higher = more bacterial growth (less inhibition). The settings on record: 50 µM, Mueller-Hinton broth.

Some of the results follow. Values are raw readings; no control value is given beside them.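 First-pass screen: polymyxin B was added at a level that permeabilizes the Salmonella outer membrane while sparing the inner membrane. DMSO wells, with and without polymyxin B, defined maximum growth. Because plates differed from one another, each plate's data were ranked separately and the compounds with the lowest OD600 were carried forward as hits.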

As for `O=C(c1n[nH]c(=O)c2ccccc12)N1CCC2(CCCN(CCc3ccccc3)C2)C1` (stereo not given), where the note is “polymyxin B 1 µg/mL”, the “bacterial growth OD600” value turned out to be 0.008.

Take `Cc1nc(-c2ccncc2)ncc1C(C)NC(=O)CCc1cccs1` (stereo not given): the “bacterial growth OD600” value (polymyxin B 1 µg/mL) is 0.911.

As to `COCCO[C@H]1[C@H](NC(=O)C(C)C)c2ccccc2C12CCN(C(=O)c1ccc(F)cc1)CC2`, the “bacterial growth OD600” value (polymyxin B 0.75 µg/mL) stood at 0.814.

For `COc1ccccc1C(=O)N[C@@H]1c2ccccc2C2(CCN(C(=O)c3cnc(C)cn3)CC2)[C@H]1OC`, the “bacterial growth OD600” value (polymyxin B 0.75 µg/mL) was 0.899.

On to `CCOC(=O)CCNC(=O)c1ccc(OC)c(OC2CCN(C(C)=O)CC2)c1`, for which, for the setting “polymyxin B 1 µg/mL”, the “bacterial growth OD600” value was 1.06.

Consider `COCCN1C(=O)CC(CC(=O)N2CCC(Oc3ccccc3OC)CC2)(c2ccccc2F)C1=O` (stereo not given), for which, where the note is “polymyxin B 0.75 µg/mL”, the “bacterial growth OD600” value is 0.787.

For `Cc1cc(-c2ccnc(-n3ncc(C(=O)N4CCN(c5ccccc5O)CC4)c3C)n2)c(C)s1`, where the note is “polymyxin B 0.75 µg/mL”, the “bacterial growth OD600” value worked out at 0.015.

For the compound `CC(NC(=O)c1coc(COc2ccc(F)cc2Cl)n1)c1cnn(C)c1` (stereo not given), the “bacterial growth OD600” value (polymyxin B 1 µg/mL) was found to be 0.942.

As for `COC(=O)C(CCSC)NC(=O)CCC1(Cc2ccc(OC)cc2F)CCC(=O)N1` (stereo not given), the “bacterial growth OD600” value (polymyxin B 0.75 µg/mL) came out at 0.843.

Turning to `O=C(Nc1ccc(-n2cccn2)cc1)C1CCCN1C(=O)CCc1ccco1` (stereo not given), the “bacterial growth OD600” value (polymyxin B 0.75 µg/mL) is 0.828.

For `CC(C)CN1CCC(C2CCN(C(=O)CCc3ccco3)C2)CC1` (stereo not given), the “bacterial growth OD600” value (polymyxin B 0.75 µg/mL) was determined as 0.833.

`COc1cccc(CC(C2CCN(C(=O)C(C)c3ccccc3)CC2)N(C)C(=O)c2ccn(C)n2)c1` (stereo not given): the “bacterial growth OD600” value (polymyxin B 0.75 µg/mL) turned out to be 0.878.

For the compound `CC1CCN(c2ccc(C(=O)NCCC3CCCCN3C)cn2)CC1` (stereo not given), the “bacterial growth OD600” value (polymyxin B 0.75 µg/mL) is 0.758.

As to `COc1ccc(C(CC(=O)NCc2ccncc2)c2ccccc2)cc1` (stereo not given), the “bacterial growth OD600” value (polymyxin B 1 µg/mL) is 0.908.

`CC1CN(Cc2cccnc2)Cc2cc(Cl)ccc2O1` (stereo not given): the “bacterial growth OD600” value (polymyxin B 0.75 µg/mL) stood at 0.841.

As to `CN(c1ncccc1CNC(=O)c1ccc2c(c1)OCO2)C1CCCCC1`, the “bacterial growth OD600” value (polymyxin B 1 µg/mL) came to 0.02.

As to `Cc1ccc(C)c(-n2cc(CN3CCOCC3)c(-c3ccccc3)n2)c1`, the “bacterial growth OD600” value (polymyxin B 1 µg/mL) was determined as 0.799.

Turning to `COc1ccc(C(=O)N2CCN(C(=O)Cn3nnnc3CN3CCCC3)CC2)cc1`, the “bacterial growth OD600” value (polymyxin B 1 µg/mL) is 0.914.

With `OCC1(CCCc2ccccc2)CCN(Cc2c[nH]nc2-c2cccc(F)c2)CC1`, the “bacterial growth OD600” value (polymyxin B 0.75 µg/mL) was 0.829.

With `O=C(c1coc(COc2ccc3c(c2)OCO3)n1)N1CCCCCCC1`, the “bacterial growth OD600” value (polymyxin B 1 µg/mL) is 0.653.
